The supplement of paper PMC6411743
± gives the standard deviation of the averaged measurements. Only a part is listed here, and it is no random draw. Small differences around the control level are noise.

The chains behind the UniProt entries cited, without tags or fusion partners. Where a name states a change or a piece, a line headed by the entry shows the natural chain unless it says otherwise.
UniProt Q96D96: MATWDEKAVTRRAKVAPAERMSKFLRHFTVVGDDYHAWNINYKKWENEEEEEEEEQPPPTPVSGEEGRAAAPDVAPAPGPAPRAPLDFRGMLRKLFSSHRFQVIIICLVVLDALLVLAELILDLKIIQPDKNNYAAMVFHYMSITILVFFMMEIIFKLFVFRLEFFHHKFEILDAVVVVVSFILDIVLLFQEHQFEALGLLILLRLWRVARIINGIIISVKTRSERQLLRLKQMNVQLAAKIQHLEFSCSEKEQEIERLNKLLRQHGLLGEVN
UniProt Q96EY1: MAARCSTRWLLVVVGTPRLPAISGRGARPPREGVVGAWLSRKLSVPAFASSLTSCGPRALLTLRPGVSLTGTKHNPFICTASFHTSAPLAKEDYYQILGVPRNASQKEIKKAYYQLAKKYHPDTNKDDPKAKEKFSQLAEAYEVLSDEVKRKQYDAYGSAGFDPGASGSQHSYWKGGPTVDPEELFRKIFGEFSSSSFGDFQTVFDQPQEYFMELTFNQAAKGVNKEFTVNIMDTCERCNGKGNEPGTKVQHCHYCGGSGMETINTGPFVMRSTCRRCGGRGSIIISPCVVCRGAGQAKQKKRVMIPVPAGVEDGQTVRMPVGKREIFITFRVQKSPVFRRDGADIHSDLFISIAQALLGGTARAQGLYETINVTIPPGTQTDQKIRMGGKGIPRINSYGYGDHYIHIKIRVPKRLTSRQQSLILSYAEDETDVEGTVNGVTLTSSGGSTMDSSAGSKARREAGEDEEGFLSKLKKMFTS
UniProt Q96S66: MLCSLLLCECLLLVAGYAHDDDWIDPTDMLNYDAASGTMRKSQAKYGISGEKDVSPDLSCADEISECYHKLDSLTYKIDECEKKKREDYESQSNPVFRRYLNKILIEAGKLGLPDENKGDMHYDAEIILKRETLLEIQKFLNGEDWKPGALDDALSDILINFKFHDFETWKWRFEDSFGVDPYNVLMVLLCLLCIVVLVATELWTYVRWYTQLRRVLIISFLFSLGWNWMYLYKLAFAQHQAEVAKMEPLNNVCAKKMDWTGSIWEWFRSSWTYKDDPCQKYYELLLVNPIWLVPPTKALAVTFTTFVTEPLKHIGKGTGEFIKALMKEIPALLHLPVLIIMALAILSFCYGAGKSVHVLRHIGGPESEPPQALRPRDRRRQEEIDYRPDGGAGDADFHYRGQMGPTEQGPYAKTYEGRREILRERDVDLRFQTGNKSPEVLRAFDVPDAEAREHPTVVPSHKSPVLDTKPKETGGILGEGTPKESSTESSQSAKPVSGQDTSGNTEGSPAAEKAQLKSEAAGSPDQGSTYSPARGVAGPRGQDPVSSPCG
UniProt Q96EK5: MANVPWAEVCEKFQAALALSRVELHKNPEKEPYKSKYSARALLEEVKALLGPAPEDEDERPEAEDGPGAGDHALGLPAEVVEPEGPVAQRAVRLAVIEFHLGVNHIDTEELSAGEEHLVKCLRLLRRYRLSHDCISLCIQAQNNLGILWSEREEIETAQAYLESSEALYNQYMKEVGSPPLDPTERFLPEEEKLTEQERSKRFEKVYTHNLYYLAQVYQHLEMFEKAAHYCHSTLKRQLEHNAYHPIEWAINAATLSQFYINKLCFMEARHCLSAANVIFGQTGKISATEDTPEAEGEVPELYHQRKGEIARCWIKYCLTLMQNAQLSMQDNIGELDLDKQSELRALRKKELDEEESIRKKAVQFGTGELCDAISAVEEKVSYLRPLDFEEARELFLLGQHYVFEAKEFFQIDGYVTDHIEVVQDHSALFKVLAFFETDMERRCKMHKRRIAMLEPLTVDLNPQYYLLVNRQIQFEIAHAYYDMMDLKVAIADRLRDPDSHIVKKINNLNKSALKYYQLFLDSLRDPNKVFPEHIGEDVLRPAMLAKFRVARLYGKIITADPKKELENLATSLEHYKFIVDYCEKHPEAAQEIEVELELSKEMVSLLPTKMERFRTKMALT
UniProt Q96BU1: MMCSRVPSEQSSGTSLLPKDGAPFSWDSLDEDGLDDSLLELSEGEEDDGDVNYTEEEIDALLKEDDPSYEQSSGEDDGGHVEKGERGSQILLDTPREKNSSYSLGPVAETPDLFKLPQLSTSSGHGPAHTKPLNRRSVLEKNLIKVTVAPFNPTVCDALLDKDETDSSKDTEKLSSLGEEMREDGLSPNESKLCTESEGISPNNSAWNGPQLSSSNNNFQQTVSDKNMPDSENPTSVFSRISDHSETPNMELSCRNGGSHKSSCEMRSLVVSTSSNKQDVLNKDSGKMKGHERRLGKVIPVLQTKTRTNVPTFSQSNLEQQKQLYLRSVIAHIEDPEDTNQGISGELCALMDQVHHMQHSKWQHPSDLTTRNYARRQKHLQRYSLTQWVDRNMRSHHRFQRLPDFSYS
UniProt Q96J02: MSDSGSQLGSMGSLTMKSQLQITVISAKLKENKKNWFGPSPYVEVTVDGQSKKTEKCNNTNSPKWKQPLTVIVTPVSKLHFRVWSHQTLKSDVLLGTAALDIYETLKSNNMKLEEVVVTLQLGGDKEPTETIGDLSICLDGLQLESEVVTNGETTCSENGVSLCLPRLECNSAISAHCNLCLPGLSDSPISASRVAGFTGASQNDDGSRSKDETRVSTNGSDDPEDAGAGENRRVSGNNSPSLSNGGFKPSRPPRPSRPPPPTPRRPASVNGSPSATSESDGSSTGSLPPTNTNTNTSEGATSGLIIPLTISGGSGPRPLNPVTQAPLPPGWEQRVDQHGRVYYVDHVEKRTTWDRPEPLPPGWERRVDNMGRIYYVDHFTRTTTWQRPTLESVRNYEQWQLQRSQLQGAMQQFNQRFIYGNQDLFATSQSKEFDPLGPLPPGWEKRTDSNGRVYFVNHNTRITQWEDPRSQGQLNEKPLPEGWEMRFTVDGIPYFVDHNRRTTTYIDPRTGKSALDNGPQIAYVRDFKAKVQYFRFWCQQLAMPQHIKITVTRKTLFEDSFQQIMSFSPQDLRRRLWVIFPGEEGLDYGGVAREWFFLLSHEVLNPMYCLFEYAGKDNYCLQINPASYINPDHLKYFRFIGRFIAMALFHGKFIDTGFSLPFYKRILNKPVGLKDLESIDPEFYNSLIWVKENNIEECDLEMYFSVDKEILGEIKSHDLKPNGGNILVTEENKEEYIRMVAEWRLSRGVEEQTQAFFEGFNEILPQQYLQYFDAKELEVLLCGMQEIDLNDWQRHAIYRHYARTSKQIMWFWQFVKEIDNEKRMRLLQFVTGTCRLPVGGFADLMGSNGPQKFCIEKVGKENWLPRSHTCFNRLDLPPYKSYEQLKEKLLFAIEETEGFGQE
UniProt Q96JP5: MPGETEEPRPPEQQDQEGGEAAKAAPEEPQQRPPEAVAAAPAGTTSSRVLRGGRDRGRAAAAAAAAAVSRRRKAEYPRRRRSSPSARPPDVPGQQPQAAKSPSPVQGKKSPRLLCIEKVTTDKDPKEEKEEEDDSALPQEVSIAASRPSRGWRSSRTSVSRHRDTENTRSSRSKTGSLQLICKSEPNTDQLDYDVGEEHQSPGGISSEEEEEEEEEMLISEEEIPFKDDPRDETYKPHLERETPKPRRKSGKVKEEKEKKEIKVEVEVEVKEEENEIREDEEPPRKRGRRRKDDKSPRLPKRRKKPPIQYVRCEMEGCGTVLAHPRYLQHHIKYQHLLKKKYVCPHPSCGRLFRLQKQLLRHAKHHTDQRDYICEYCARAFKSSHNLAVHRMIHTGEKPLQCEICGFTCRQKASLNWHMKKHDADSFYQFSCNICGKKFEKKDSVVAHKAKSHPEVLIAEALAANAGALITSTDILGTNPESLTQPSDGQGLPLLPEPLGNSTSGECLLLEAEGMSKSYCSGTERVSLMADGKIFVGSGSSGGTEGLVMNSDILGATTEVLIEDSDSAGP
UniProt Q96EI5: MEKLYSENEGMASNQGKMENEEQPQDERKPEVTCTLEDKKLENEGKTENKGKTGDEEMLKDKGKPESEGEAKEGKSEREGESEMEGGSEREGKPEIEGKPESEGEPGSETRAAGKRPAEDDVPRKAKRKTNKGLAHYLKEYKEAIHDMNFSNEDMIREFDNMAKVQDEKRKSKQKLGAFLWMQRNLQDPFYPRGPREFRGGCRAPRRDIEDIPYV
UniProt Q96EV8: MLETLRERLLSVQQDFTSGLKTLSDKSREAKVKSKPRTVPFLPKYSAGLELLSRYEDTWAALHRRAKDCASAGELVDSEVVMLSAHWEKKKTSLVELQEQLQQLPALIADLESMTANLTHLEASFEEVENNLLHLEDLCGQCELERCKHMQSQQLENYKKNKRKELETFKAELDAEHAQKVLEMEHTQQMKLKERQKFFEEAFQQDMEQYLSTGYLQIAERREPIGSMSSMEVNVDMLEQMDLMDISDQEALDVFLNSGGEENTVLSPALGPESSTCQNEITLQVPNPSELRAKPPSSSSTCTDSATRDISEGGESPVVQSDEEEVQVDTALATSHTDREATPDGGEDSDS
UniProt Q96GD0: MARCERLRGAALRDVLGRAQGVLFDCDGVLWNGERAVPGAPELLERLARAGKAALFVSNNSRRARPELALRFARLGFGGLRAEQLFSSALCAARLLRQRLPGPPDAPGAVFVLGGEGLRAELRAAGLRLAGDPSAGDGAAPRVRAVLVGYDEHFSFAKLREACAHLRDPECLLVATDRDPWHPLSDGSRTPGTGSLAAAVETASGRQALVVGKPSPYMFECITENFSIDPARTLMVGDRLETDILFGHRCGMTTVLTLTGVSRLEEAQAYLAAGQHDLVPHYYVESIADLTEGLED
UniProt Q96FJ0: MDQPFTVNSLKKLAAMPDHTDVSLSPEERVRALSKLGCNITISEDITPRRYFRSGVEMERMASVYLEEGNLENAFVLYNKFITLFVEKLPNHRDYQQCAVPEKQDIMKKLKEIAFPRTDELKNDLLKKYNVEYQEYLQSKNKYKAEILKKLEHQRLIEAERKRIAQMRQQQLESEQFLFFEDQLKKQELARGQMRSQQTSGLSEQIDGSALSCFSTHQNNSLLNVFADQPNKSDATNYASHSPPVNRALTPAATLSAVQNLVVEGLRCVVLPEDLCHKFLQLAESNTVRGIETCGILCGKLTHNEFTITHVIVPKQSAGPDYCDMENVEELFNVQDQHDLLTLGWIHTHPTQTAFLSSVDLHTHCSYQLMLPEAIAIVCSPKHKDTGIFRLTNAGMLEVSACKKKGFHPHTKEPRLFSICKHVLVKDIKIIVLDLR
UniProt Q96RR4, whole entry, looked up: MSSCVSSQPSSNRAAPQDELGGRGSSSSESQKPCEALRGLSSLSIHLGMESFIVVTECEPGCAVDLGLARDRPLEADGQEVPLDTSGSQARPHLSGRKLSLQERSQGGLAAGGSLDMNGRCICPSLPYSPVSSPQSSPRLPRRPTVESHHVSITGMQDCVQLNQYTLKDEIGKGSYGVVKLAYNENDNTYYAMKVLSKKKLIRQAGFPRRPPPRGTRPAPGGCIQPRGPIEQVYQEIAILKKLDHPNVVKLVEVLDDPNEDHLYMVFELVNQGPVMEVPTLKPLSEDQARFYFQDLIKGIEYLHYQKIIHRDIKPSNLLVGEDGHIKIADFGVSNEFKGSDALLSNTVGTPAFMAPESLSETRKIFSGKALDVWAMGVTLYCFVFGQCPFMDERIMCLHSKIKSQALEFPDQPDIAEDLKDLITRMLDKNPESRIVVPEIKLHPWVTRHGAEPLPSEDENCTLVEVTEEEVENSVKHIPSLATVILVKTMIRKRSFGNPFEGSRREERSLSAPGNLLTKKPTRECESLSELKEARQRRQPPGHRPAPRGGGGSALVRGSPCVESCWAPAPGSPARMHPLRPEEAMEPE
UniProt Q96RP9: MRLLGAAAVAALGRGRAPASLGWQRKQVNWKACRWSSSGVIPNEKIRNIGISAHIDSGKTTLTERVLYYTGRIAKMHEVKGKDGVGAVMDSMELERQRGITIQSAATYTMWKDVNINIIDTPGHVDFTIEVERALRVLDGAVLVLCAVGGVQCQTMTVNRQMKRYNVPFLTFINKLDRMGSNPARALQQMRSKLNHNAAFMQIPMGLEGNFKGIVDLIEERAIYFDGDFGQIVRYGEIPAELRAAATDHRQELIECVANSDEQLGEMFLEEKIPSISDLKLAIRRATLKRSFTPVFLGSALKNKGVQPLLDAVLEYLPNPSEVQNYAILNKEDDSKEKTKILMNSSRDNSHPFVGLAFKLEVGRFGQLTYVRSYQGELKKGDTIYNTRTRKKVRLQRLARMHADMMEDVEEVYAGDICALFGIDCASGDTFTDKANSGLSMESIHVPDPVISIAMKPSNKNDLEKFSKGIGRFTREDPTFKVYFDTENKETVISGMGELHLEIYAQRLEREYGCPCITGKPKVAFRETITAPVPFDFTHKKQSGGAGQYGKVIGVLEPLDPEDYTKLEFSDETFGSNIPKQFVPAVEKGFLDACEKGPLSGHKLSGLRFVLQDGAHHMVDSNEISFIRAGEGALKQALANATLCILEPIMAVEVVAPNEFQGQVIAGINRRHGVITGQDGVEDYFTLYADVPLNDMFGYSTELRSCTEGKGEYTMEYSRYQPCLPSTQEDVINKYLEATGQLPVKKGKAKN

These targets were tested with Nc1ncnc2c1ncn2[C@@H]1O[C@H](COP(=O)(O)OP(=O)(O)OP(=O)(O)O)[C@@H](O)[C@H]1O [adenosine triphosphate] (assay: NP40-soluble protein abundance relative to vehicle (solubility fold change) (ratio); higher = more soluble protein in presence of ATP). Settings: concentration: 0.5mM.
Summary of the method: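 Data come from three independent experiments in which Dounce-homogenised Jurkat crude lysate was treated at eight concentrations from 0.1 to 10 mM. Treatment ran 10 min at room temperature and then 3 min at 37 °C, after which 0.8% NP40 and benzonase were added for 60 min at 4 °C before ultracentrifugation. The supernatant underwent TMT labelling and LC-MS/MS, and vsn-normalised intensities were expressed as fold change against the detergent-processed vehicle in each replicate.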
ZNF830 (UniProt Q96NB3) showed an NP40-soluble protein abundance of 1.14 ± 0.048.
UniProt Q96DZ1 and related entries showed an NP40-soluble protein abundance of 1.06 ± 0.076.
UniProt Q96D96 and related entries gave an NP40-soluble protein abundance of 1.07 ± 0.1.
For UniProt Q96EY1 and related entries, the NP40-soluble protein abundance was 1.03 ± 0.085.
EFHD2 (UniProt Q96C19) was tested, and the NP40-soluble protein abundance was 0.94 ± 0.035.
Target UniProt Q96BN8 has an NP40-soluble protein abundance of 0.973 ± 0.035.
Work on UIMC1 (UniProt Q96RL1) yielded an NP40-soluble protein abundance of 0.997 ± 0.029.
For UniProt Q96MT7-2, the NP40-soluble protein abundance was 1.01 ± 0.025.
UniProt Q96S66 and related entries gave an NP40-soluble protein abundance of 1 ± 0.052.
UniProt Q96P48 and related entries showed an NP40-soluble protein abundance of 1.05 ± 0.056.
Work on UniProt Q96EK5 yielded an NP40-soluble protein abundance of 0.973 ± 0.034.
Work on UniProt Q96BU1 and related entries yielded an NP40-soluble protein abundance of 0.975 ± 0.17.
Target UniProt Q96J02 and related entries has an NP40-soluble protein abundance of 1.12 ± 0.02.
In the case of DCUN1D1 (UniProt Q96GG9), the NP40-soluble protein abundance is reported as 0.982 ± 0.056.
ZFP91 (UniProt Q96JP5) showed an NP40-soluble protein abundance of 0.988 ± 0.026.
Target UniProt Q96EI5 and related entries has an NP40-soluble protein abundance of 0.953 ± 0.046.
Target UniProt Q96EV8 and related entries has an NP40-soluble protein abundance of 0.965 ± 0.027.
CRAMP1 (UniProt Q96RY5) gave an NP40-soluble protein abundance of 0.951 ± 0.23.
For UniProt Q96N46 and related entries, the NP40-soluble protein abundance was 1.03 ± 0.084.
For PDXP (UniProt Q96GD0), the NP40-soluble protein abundance was 0.979 ± 0.017.
UniProt Q96QU8 and related entries gave an NP40-soluble protein abundance of 1.03 ± 0.057.
UniProt Q96FJ0 and related entries was tested, and the NP40-soluble protein abundance was 1.08 ± 0.1.
UniProt Q96HR8 and related entries showed an NP40-soluble protein abundance of 1.15 ± 0.056.
UniProt Q96RR4 and related entries was tested, and the NP40-soluble protein abundance was 1.09 ± 0.095.
UniProt Q96RP9 and related entries gave an NP40-soluble protein abundance of 1.05 ± 0.053.
